# These are yes or no findings as the source states them, for the method shown. Binding calls can cover weak binding; strength is not graded here.
# Protein sequences, listed by entry. Tags and fused reporters are not part of them. Lines headed by an entry give the natural chain unless they say otherwise; changes in a name come on top. Residues count along the entry.
# UniProt Q9NSA1, residues 29-209: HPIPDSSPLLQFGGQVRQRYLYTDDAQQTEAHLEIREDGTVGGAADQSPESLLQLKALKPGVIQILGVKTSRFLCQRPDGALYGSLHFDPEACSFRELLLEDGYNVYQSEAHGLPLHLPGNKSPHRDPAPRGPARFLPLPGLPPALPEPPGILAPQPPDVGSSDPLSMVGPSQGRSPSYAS
# UniProt Q99N32: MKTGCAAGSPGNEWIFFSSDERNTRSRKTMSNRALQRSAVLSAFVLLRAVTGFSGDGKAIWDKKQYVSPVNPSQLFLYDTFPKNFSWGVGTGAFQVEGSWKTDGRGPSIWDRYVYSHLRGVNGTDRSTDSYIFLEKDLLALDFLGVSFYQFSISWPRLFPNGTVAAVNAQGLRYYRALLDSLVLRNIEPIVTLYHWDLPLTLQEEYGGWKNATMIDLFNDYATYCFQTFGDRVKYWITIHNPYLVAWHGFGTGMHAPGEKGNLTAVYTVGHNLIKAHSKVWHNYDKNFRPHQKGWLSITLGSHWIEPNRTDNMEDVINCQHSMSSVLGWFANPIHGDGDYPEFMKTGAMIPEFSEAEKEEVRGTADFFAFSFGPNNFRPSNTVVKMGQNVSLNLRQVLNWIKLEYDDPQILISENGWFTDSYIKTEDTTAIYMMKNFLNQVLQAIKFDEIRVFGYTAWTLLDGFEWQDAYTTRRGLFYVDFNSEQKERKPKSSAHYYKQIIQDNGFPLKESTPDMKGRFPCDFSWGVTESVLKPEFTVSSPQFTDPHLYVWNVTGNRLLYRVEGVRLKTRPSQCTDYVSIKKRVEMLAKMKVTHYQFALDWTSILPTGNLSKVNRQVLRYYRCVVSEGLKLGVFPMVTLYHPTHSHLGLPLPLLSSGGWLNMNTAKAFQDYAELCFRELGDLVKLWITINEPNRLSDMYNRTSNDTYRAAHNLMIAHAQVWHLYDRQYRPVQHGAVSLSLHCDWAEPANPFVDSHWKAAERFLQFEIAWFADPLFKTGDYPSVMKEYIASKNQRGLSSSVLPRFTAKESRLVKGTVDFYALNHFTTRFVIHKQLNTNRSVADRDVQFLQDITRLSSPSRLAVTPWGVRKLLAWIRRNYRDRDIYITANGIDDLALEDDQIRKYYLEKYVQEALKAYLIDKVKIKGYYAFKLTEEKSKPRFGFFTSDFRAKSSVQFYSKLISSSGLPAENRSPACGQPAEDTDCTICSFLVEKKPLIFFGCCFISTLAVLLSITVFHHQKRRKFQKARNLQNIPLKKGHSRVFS
# Tests used:
# [1] = target: Recombinant human FGF21 (human) (UniProt Q9NSA1); test: ELISA; competitive binding; increasing excess of KLB or KLa bound to immobilised FGF19 or FGF21 (2.5 μg/ml) for 1 h before BP3 or MBP control (0.15 μg/ml); MaxiSorp plates; both purified
# [2] = target: Human recombinant FGF19 (human) (UniProt O95750); test: as above
# [3] = target: T1, Recombinant FGF15 (mouse) (UniProt O35622); test: ELISA; solid-phase equilibrium binding; FGF coated on the plate; MBP-tagged protein in serial dilutions, 2 h room temperature; detection with anti-MBP antibody; both purified
# T1 sequence: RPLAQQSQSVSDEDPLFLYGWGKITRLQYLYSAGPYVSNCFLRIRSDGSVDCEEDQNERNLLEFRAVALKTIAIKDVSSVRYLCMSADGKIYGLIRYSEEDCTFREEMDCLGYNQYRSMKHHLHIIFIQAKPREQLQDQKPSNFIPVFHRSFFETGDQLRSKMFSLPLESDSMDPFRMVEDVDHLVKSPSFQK
binding [1],binding [2],binding [3],Substance
binds,binds,,Recombinant mouse β-Klotho (from UniProt Q99N32) (receptor)
,,binds,MBP-tagged C66 fusion protein (C-terminal fragment of the BP3 protein) (human) (domain or fragment)

# Reference: publication PMC6206164, “Fibroblast Growth Factor Binding Protein 3 (FGFBP3) impacts carbohydrate and lipid metabolism” (Scientific Reports, 2018)
